Experimental data reported in article PMC11183067.
No constants are given. Whether binding was seen depends on the method and setting. For some assays here: In cells and extracts the contact can be indirect. Some entries that bind do so weakly or less than the wild type.

Protein sequences, listed by entry. Tags and fused reporters are not part of them. Lines headed by an entry give the natural chain unless they say otherwise; changes in a name come on top. Chains listed by the source or under a name are the forms on record and can include a tag or linker.
UniProt P05412: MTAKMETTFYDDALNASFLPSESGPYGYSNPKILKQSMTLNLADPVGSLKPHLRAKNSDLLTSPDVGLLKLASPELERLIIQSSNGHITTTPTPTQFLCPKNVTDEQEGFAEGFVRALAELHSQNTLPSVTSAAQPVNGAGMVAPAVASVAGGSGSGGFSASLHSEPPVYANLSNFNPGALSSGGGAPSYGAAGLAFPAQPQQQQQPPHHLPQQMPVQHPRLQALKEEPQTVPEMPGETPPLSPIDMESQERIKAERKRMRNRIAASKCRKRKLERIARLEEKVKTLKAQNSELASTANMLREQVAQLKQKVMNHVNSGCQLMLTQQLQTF
UniProt P46527: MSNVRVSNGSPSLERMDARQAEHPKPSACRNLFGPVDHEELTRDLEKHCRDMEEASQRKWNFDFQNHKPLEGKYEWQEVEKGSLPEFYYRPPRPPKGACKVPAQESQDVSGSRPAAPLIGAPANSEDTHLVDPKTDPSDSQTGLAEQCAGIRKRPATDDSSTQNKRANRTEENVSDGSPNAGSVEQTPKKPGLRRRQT
GFP-p27CK-T157D/T198D (P46527, form named): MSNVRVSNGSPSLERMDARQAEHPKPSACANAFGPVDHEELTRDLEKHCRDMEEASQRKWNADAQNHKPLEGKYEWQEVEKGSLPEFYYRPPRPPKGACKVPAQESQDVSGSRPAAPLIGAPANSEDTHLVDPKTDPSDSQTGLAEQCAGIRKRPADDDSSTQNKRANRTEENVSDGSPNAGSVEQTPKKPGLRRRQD
UniProt P25490: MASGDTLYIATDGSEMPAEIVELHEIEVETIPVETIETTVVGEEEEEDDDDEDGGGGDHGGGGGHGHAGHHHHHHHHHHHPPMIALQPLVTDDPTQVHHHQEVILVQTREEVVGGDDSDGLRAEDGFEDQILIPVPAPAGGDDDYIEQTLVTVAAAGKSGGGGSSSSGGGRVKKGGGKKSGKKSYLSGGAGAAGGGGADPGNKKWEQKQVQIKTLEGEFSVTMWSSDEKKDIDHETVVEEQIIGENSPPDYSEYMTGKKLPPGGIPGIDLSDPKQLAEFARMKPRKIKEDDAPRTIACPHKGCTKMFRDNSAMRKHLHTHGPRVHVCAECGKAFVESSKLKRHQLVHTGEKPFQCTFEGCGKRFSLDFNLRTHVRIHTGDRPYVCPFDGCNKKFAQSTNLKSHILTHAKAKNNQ
UniProt P40763: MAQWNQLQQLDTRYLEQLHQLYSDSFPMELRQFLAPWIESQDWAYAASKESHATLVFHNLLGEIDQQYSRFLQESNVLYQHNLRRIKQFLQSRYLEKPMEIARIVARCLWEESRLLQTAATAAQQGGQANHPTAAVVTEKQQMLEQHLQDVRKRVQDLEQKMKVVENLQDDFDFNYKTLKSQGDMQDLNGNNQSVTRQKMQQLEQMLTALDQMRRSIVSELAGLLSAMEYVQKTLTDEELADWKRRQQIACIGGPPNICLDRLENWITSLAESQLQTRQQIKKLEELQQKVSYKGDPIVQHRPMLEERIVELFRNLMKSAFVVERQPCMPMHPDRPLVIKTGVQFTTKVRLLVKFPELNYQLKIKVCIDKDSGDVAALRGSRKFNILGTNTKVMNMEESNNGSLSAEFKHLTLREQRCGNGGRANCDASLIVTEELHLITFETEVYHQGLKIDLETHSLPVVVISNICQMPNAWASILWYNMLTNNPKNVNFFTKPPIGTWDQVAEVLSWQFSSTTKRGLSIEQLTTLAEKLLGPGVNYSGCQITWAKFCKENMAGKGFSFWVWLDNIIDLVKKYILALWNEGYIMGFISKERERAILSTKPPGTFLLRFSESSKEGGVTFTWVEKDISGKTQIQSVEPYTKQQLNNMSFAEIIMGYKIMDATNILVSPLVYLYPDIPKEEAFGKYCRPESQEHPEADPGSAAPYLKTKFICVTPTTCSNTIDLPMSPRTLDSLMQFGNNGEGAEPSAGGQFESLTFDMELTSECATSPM
UniProt Q13547: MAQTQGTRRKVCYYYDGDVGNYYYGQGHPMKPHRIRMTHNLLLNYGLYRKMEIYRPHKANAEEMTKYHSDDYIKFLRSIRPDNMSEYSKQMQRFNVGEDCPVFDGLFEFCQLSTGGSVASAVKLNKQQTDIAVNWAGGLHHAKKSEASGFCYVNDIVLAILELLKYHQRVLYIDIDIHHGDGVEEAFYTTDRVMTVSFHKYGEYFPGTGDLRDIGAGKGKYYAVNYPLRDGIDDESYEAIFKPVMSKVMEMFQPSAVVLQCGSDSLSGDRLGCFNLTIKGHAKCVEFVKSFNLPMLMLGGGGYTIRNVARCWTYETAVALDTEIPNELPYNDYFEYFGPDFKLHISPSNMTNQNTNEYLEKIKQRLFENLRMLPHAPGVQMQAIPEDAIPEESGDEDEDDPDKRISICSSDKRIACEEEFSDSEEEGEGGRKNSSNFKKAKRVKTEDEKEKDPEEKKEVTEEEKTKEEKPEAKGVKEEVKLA
UniProt Q92793: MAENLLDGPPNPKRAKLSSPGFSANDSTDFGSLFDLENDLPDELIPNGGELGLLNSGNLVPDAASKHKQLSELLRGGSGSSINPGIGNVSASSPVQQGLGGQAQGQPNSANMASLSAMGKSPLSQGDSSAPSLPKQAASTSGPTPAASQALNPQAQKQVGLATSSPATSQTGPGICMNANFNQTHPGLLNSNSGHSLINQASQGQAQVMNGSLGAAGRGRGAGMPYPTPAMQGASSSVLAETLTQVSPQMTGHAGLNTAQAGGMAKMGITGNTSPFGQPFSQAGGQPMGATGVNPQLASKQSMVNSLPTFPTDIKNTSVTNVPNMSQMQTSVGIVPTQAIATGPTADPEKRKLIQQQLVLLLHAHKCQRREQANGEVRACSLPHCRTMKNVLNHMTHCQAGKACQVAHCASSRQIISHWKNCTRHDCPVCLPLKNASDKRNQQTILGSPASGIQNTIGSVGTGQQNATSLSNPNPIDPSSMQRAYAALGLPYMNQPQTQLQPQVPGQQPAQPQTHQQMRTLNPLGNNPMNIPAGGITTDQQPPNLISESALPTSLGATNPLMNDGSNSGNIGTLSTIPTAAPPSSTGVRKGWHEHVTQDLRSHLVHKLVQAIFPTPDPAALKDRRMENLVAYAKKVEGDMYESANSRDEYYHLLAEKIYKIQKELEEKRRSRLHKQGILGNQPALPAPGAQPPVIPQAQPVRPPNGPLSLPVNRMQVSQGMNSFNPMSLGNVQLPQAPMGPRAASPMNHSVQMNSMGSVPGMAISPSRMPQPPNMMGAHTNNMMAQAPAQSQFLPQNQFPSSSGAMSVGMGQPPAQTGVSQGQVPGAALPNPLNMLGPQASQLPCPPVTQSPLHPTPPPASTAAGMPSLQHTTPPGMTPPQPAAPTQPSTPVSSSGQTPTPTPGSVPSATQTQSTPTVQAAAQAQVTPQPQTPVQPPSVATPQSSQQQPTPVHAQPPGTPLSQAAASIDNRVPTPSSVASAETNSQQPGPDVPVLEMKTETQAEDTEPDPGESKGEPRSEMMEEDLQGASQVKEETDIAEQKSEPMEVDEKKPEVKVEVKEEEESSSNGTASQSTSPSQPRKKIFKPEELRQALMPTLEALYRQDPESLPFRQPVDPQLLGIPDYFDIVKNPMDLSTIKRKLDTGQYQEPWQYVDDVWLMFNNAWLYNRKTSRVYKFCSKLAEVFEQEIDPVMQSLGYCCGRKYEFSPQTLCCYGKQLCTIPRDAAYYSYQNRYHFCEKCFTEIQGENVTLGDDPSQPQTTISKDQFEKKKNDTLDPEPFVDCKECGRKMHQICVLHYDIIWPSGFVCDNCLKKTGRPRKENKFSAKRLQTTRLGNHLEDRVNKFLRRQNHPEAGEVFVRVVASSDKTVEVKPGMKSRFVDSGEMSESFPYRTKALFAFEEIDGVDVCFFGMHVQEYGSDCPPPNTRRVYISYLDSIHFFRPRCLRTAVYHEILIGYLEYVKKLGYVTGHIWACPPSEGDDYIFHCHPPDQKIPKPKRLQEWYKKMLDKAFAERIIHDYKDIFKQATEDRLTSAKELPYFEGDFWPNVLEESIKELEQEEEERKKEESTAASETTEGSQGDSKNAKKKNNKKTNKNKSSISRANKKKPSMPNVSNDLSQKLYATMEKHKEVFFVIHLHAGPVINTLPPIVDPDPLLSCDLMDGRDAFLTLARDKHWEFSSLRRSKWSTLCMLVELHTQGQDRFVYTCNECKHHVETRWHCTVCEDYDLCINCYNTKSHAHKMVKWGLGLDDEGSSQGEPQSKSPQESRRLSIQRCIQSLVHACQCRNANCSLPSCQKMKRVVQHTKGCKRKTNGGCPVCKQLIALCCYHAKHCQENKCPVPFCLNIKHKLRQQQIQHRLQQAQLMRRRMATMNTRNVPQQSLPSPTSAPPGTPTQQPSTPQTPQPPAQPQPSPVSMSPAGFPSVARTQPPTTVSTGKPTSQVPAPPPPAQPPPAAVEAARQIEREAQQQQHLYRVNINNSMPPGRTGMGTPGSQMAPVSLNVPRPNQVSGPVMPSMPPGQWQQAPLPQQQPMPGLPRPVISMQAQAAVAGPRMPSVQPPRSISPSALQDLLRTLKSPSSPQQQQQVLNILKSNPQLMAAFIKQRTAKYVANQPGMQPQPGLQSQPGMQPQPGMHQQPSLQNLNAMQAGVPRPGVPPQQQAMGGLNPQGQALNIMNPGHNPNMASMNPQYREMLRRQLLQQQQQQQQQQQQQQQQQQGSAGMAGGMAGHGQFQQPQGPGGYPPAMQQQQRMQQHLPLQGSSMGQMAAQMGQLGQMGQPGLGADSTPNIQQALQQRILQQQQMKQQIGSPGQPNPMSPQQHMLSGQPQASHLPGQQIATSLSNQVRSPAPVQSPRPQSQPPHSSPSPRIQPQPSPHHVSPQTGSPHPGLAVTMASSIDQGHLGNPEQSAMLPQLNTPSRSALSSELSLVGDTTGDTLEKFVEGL

Assays:
[1] = biological target: cJun (human (endogenous in MDA-MB-231 lines)) (UniProt P05412); test: ChIP-Western; chromatin cross-linked with 1% formaldehyde and sonicated, precipitated with cJun antibody, Western blot of the precipitate; cells not named
[2] = biological target: p27 (cellular p27 of MDA-MB-231 parental cells) (human (endogenous in MDA-MB-231)) (UniProt P46527); test: co-IP; cells lysed with Cell Lytic M; 1 mg lysate incubated overnight at 4 °C with 2 micrograms p27 antibody (D69C12) or control IgG; collected on protein A/G plus agarose; immunoblot; 231, 231DD and 1833 cells
[3] = biological target: C-terminally phosphorylated p27pT157pT198 (endogenous, MDA-MB-231-1833 cells) (human (endogenous in MDA-MB-231-1833)) (UniProt P46527); test: as above
[4] = biological target: GFP-p27CK-T157D/T198D (human) (UniProt P46527); test: as above

Row | binding [1] | binding [2] | binding [3] | binding [4] | Substance
1 | binds |  |  |  | YY1 (from UniProt P25490 1-414)
2 |  | binds | binds | binds | signal transducer and activator of transcription 3 (STAT3) (from UniProt P40763 1-770)

The next lines start with the substance.

Row | Substance | binding [1] | binding [2] | binding [3] | binding [4]
3 | HDAC1 (from UniProt Q13547 1-482) | binds |  |  | 
4 | cJun (from UniProt P05412 1-331) |  | binds | binds | binds
5 | CBP (from UniProt Q92793 1-2442) |  | binds | binds | binds
